Reference: patent US11591366B2, “Macrocyclic compounds and methods of preventing or treating pain” (SOCPRA SCIENCES SANTÉ ET HUMAINES S.E.C., priority 2017, dated 2023)
Some entries share one result that the patent states for a list of compounds. At least one peptide structure holds a part that was inferred or is arguable (an end, a ring closure or a residue). Numbered stars: 1 amine (or outer) side, 2 acyl side, 3 side chain; on linkers, the order of the positions; unused ones are H or OH. Square brackets hold non-standard residues; d marks the D form. Peptide text beside a SMILES is read from it. X3 = NCCCC[C@H](N)CN([C@@H](CCCCN)C(=O)[*:2])[*:1]; Tle = CC(C)(C)[C@H](N)C(=O)O

Test system: Sprague-Dawley rats
Experiment: Body temperature (hypothermia)
Format: in vivo
Conditions: rat, 60 min after i.t. injection, 30 μg/kg
Method: Body temperature was measured using a thermistor probe inserted into the rectum of adult Sprague-Dawley rats. Prior to testing, animals were individually acclimatized to manipulations and thermistor probe 5 min/day for three consecutive days. On the test day, temperature was measured before (baseline) and each 10 min for up to 60 min following intrathecal drug administration of compounds. […] Changes in body temperature (Δ body temp) were determined from baseline for each time and each animal. Data represent the mean±SEM of 3-16 rats for each condition.
Data are expressed as mean±standard errors of the mean (SEM). All graphs and statistical analysis were performed using GraphPad Prism™ 7 (GraphPad software, La Jolla, Calif., USA). […] A difference in response was considered significant with p-values *p<0.05, **p<0.01, and ***p<0.001. […] Then, ED values were determined using the dose-response-stimulation log(agonist) vs response (three parameters).

CCOC(=O)[C@H](CC(C)C)NC(=O)[C@@H](NC(=O)[C@H](Cc1c[nH]c2ccccc12)NC(=O)[C@@H]1CCCN1C(=O)[C@H](CCCCN)NC[C@@H](N)CCCCN)C(C)(C)C [PD149163, H-Lys-[ψCH2NH]-Lys-Pro-Trp-tertLeu-Leu-OEt, reference compound] (H-[X3]PW[Tle]L-OEt)
Temperature drop: > 2 °C
